Assay results: PubChem BioAssay AID720533 (National Center for Advancing Translational Sciences (NCATS), 2013)
Several values for one entry are separate records, joined by “and”; a condition that tells them apart may be missing. Identical values can stand only once. Hit rate of the full screen: of about 18,000 compounds, about 750 (4.2%) were called active. Inconclusive results, whose numbers are uncertain, are shown with a selection of clear calls. Calls follow the shape of the full dose curve; tested in HEK293 cells. A potency beside an inconclusive call is a rough fit, not a confirmed value. Where a structure was tested more than once in an assay, its records may differ in their call.

Assay: qHTS for Inhibitors of binding or entry into cells for Lassa Virus
Details: Lassa virus pseudotyped entry inhibition, cell-based qHTS; activity change, negative = inhibition: at 49.2 µM (top of the series) unless noted
% is scaled to controls: 0 for no effect and ±100 for the full control effect; potency is read from the fitted curve at half-maximal effect.

Row | Compound | activity change, negative = inhibition | Potency
1 | H-SYSMEHFRWGKPVGKKRRPVKVYPNGAEDESAEAFPLEF-OH | inactive: 0.19% | –
2 | C1CCC(NC(=NC2C3CC4CC(C3)CC2C4)N2CCOCC2)CC1 (configuration not stated) | – | inconclusive: 31.6 µM [inhibitor, partial curve, poor fit] and inactive
3 | O=[N+]([O-])c1ccc(O)c2ncccc12 | – | active: 11.2 µM
4 | C#CCCCON=C1C[C@@H](O)[C@H](O)[C@H]2[C@@H]3C(=O)N(Cc4ccc5c(c4)OCO5)C(=O)[C@@H]3CC[C@@H]12 | inactive: -9.54% [at 8.59 µM] | –
5 | CS(=O)(=O)CCNCc1ccc(-c2ccc3ncnc(Nc4ccc(OCc5ccccc5)cc4)c3c2)o1 | – | inconclusive: 15.8 µM [inhibitor, partial curve, poor fit]
6 | CCCCOC(=O)c1cc2c(cn1)[nH]c1ccccc12 | – | inconclusive: 35.5 µM [inhibitor, single point]
7 | COc1cc(CC(C)N)c(OC)cc1Br (configuration not stated) | – | inconclusive: 79.4 µM [inhibitor, single point]
8 | Cc1oc(-c2ccccc2NC(=O)C2CCCO2)nc1CNC(=O)c1[nH]c2c(C)ccc(C)c2c1C (configuration not stated) | inactive: -11.2% | –
9 | CC1CCC(C(C)C)C(OC(=O)c2ccccc2N)C1 (configuration not stated) | – | inconclusive: 35.5 µM [inhibitor, single point]
10 | CCc1nn(CCCN2CCN(c3cccc(Cl)c3)CC2)c(=O)n1CCOc1ccccc1 | – | inconclusive: 35.5 µM [inhibitor, single point] and inconclusive: 25.1 µM [inhibitor, single point]
11 | COc1ccc(CN2CCCC(c3nc(-c4ccncc4)ncc3-c3ccccc3)C2)cc1OC (configuration not stated) | – | inconclusive: 22.4 µM [inhibitor, partial curve, poor fit]
12 | O=c1c2ccccc2[se]n1-c1ccccc1 | – | active: 25.1 µM
13 | O=C(c1cccc(Cn2cccn2)c1)N1CCOc2c(cc(-c3csc4ccccc34)cc2OC2CCOC2)C1 (configuration not stated) | – | inconclusive: 12.6 µM [inhibitor, partial curve, poor fit]
14 | C[C@@H]1COc2cc(F)ccc2S(=O)(=O)N1 | inactive: 8.31% | –
15 | COc1cc([C@@H](NC(=O)C(F)(F)F)C2CCCCC=C2c2ccccc2)cc(OC)c1OC (some centres not stated) | inconclusive: -12.3% [inhibitor] [at 8.59 µM] | –
16 | NC(=Nc1ccccc1)Nc1ccccc1 | – | inconclusive: 22.4 µM [inhibitor, partial curve, poor fit] and inconclusive: 14.1 µM [inhibitor, full curve]
17 | COC(=O)c1cccc(C(=O)N2CCc3c(cnc(C)c3CNC(=O)c3ccsc3)C2)c1 | inactive: -18.4% | –
